Source: article PMC10163288
The list shows a part of the results.

B1: il10ra_site1_sap_27_mot_HHH_b1_03613_af2_000000245_0001_1_20_H_._HHH_b1_04433_af2_0001_0000200022_0000001_0_0001_af2pred_0001 (protein)
chain: SSSSDEERIKLAIRFAKFLEEEGDPEAAKFILRAAIQIARKLGNEELVEELERLLKELEENSSSS
B2: il10ra_site1_normal_mot_HHH_b2_02354_af2_000000157_0001_40_56_H_._HHH_b1_07268_0001_0000100002_0000001_0 (protein)
chain: SSSSDEHEAARLIEEIMRLIKEGDHEEAKELIEELEELAKRLNDPNLEWIVKSLKLAIEQVSSSS
B3: il10ra_site1_normal_mot_HHH_b2_02337_000000026_0001_38_52_H_._HHH_b1_02815_0001_0000600033_0000001_0 (protein)
chain: SSSSDEEEEESEELERELEELLRRGDQERFNRLAQEISQFAFEVNDEELLRRVWELVRKFASSSS
B4: il10ra_site1_normal_mot_7d538683ae38ff56261eb02f12605454_0001_af2_000000062_0001_54_65_H_._HHH_b1_03098_0001_0000400031_0000002_0 (protein)
chain: SSSSSHAEAIVRIYREAVEFLYESGNPERAEHSARAALRALELLGNPELVEELERWLQELLSSSS
B5: il10ra_site1_normal_mot_HHH_b1_05185_000000011_0001_22_39_H_._HHH_b2_03997_0001_0000100011_0000001_0_af2pred_0001 (protein)
chain: SSSSSSEDEERLELIIELAKRVEDPEVARRLLEMAAELAEKNNNEELLEEIQRLLEELGSSSSSS
B6: il10ra_site1_normal_mot_HHH_b2_03220_af2_000000223_0001_23_40_H_._HHH_b1_01997_0001_0000100006_0000001_0 (protein)
chain: SSSSSTEENEEIWKLLREALQIPDKREAEELVEEAIEIAEEANNEVLLIQARFALRAIKLSSSSS
B7: il10ra_site1_sap_13_mot_HHH_b2_01447_af2_000000258_0001_1_20_H_._HHH_b2_04340_af2_0001_0000100006_0000001_0_0001 (protein)
chain: SELQEILRLVYRLGDPEILRALWKLVRRAAEGDPEAEELLKEILELLREGNREEVHELAKEILEK
B8: il10ra_site1_normal_mot_HHH_b2_08186_000000021_0001_43_56_H_._HHH_b1_04390_0001_0000100009_0000001_0 (protein)
chain: SSSSSSSLSELALRALRLAYKIPDPEESEKLLQEIWEALKKGDEEELRKIVERLEEELSSSSSSS
B9: il10ra_site1_normal_mot_HHH_b2_00943_af2_000000149_0001_1_17_H_._d3c612d18aab0e0945b39b51a1e20ad4_0001_1_af2_0001_0000500040_0000001_0 (protein)
chain: SDEENLQREVERNPNDLNALFLLLQVLAAREGDPELWELLRRATELIREGNPEEAREILQEAIER
B10: il10ra_site1_normal_mot_HHH_b2_08186_000000021_0001_43_56_H_._HHH_b1_04492_0001_0000100010_0000001_0 (protein)
chain: SSSDLEEEIEELLERIEELLKEGDREEALRLLQEAIRLIFRLGDQELLKELWELLREVAEKSSSS
B11: il10ra_site1_sap_16_mot_HHH_b1_06048_000000117_0001_42_56_H_._HHH_b1_02925_0001_0000400020_0000001_0_0001_af2pred_0001 (protein)
chain: SDEERFRVAVRNAAMLAGVEDVEVERENGEFEVTIHADSPAARRLELMVRWVALALNVEVEVEIR
B12: il10ra_site1_sap_10_mot_HHH_b2_05343_000000235_0001_19_35_H_._HHH_b1_05809_0001_0000100005_0000001_0_0001 (protein)
chain: SSSSDEYVRMTLRFAHWLAEEGDRDAVKHFLRVAKELAEKDGDEELKELIEEVEERVEELLSSSS
B13: il10ra_site1_normal_mot_HHH_b1_01879_000000050_0001_1_18_H_._HHH_b1_04021_0001_0000200009_0000001_0_af2pred_dldesign_0_af2pred (protein)
chain: SSSSSELDALLAALEAAVAAGDEAAVRELSVRVSRLALEANNKEVLKKVFDLMVDFYKKLSSSSS
B14: il10ra_site1_sap_26_mot_HHH_b1_01082_af2_000000031_0001_3_19_H_._HHH_b1_04956_0001_0000300027_0000001_0_0001 (protein)
chain: SSSSSDIEERLRLALRFIKWLEEAGDPEAARRILRAAEDIARRNNNPLLEEIEELLEELTSSSSS
B15: il10ra_site1_sap_27_mot_HHH_b2_05423_000000119_0001_22_38_H_._HHH_b1_07464_af2_0001_0000600034_0000001_0_0001_af2pred_dldesign_0_af2pred (protein)
chain: SSSSDPEVEAEVNRLLEEAKKEEDREKRSHLLLQAYSLANAAKDEALVAKVEEVAKEVIKSSSSS
B16: il10ra_site1_normal_mot_HHH_b2_03220_af2_000000223_0001_23_40_H_._HHH_b2_01200_af2_0001_0000600012_0000002_0_af2pred_0001 (protein)
chain: SSSSSDEREANQRVLELLRRAFEVSEEEAEELLKEAEQLAEEVNDPLLEKDVKTAKRLLSSSSSS
B17: il10ra_site1_sap_22_mot_HHH_b2_08186_000000021_0001_43_56_H_._HHH_b1_07644_af2_0001_0000300003_0000001_0_0001 (protein)
chain: SSSSSSDQELIELIMELARLLIRNDEERARELAKEAEELAEELGNERALKMLEDLLKVLSSSSSS
B18: il10ra_site1_normal_mot_HHH_b2_00273_000000062_0001_23_39_H_._HHH_b1_08542_0001_0000100001_0000001_0 (protein)
chain: SSSSSEEEERLEELLEEVEELIKEGDEEEALRLLLELIRLAFRASDEEVVRRIWELAKLIASSSS
B19: il10ra_site1_normal_mot_7d538683ae38ff56261eb02f12605454_0001_af2_000000062_0001_54_65_H_._HHH_b2_04392_af2_0001_0000500019_0000001_0_af2pred_0001 (protein)
chain: SSSSSEEARQALLAARLAIEWAYEQGDEHLAEAVFRSFAQALKELGDEEAVEQLEELFEKLSSSS
B20: il10ra_site1_normal_mot_HHH_b2_04677_000000098_0001_1_19_H_._HHH_b1_03771_0001_0000500041_0000001_0 (protein)
chain: SSSSTEERQELVELLREIFRLLLRGNPEEAKELIEEAQKLAKELGNESALRVLESLEQIVDSSSS
B21: il10ra_site1_normal_mot_HHH_b2_07521_000000141_0001_20_37_H_._HHH_b2_04525_af2_0001_0000500008_0000001_0 (protein)
chain: SSSSSDEELVKRSVRRLLKAAKEIEDEEYVRLALRFARALAEDNNNEEVLELVEEVARRLSSSSS
B22: il10ra_site1_normal_mot_HHH_b2_07521_000000141_0001_20_37_H_._HHH_b2_06530_0001_0000300044_0000001_0_af2pred_0001 (protein)
chain: SSSDRDEEQLRLTIRFAKWVLEQGDPEAAEFLVRAAVELARKLGDEELLKEAEELLEEIEKSSSS
B23: il10ra_site1_normal_mot_HHH_b2_07144_000000289_0001_1_18_H_._HHH_b2_05888_0001_0000200007_0000001_0 (protein)
chain: SSSSDSQELYKLSREAAELLRNGNPEEARKVLEEAEELAQELNNPVLLITIEHLLRDIEESSSSS
B24: il10ra_site1_sap_22_mot_HHH_b1_02420_000000033_0001_20_36_H_._HHH_b2_07350_0001_0000700038_0000002_0_0001_af2pred_0001 (protein)
chain: SIEELVRLIVELAGAPPEVERQLQLVVRAAKRLSPRSFEIMQRRLEEVIENNDEEAAEEIIKLFT
B25: il10ra_site1_normal_mot_HHH_b1_05056_000000217_0001_1_20_H_._HHH_b2_01071_af2_0001_0000100001_0000001_1 (protein)
chain: SSSSDEEREEVERLLEEAEEITDPREASEVLLRALRLAWESNDPELLRLVWEVVRRVEELLSSSS
B26: il10ra_site1_normal_mot_HHH_b1_01779_000000096_0001_43_57_H_._HHH_b2_05490_af2_0001_0000100007_0000001_0_af2pred_0001 (protein)
chain: SSSSSDEEKLRLAIRFAKHLVEAGDPEAARIILEAAIRVARLLGDEELLEEAEEVLERLDSSSSS
B27: il10ra_site1_sap_20_mot_1c3c3e46dde0d4e4be3ec3dd9add6289_0001_000000096_0001_34_50_H_._HHH_b1_08757_0001_0000100004_0000002_0_0001 (protein)
chain: SSSSSDNERAVETMLKAAKELDDPEYVRLALRFAEMTARALNDPELERLVEEVEEEIEKKSSSSS
B28: il10ra_site1_sap_11_mot_HHH_b1_05357_000000034_0001_23_39_H_._HHH_b2_01717_0001_0000400019_0000003_0_0001 (protein)
chain: SSSSDELRERAEELLEEAEERNDEILAKTARAVLDVVRRAEELGNPEYAELALRFLEQSLSSSSS
B29: il10ra_site1_normal_mot_HHH_b2_06954_000000276_0001_1_20_H_._HHH_b2_04149_0001_0000200004_0000001_0 (protein)
chain: SSSSSEEEEIQEALLLAARVFALLTDPELAQELARLAHELARTGDPELAEELFELARELGSSSSS
B30: il10ra_site1_sap_17_mot_HHH_b1_07478_000000026_0001_21_37_H_._30473498bc9c9bc4038a1594c8f83366_0001_0001_0000200007_0000002_0_0001_af2pred_0001 (protein)
chain: SSSSKIVRVLFRAAKYLLEQGDIENAKLAIRDLEVAAKALNDPEARELVEELKELLEEIEKSSSS
B31: il10ra_site1_sap_16_mot_HHH_b2_00440_af2_000000075_0001_42_56_H_._HHH_b1_01499_0001_0000100006_0000001_0_0001_af2pred_0001 (protein)
chain: SSSSSSLEEEVEELYERAKELLEEGDPEEAARLLHRLAELALKSQDREAAKLAAEITKLSSSSSS
B32: il10ra_site1_sap_11_mot_HHH_b2_02567_af2_000000093_0001_41_57_H_._aad918059751cfb3ae4f7fa8c0860a5b_0001_1_af2_0001_0000100003_0000002_0_0001_af2pred_0001 (protein)
chain: SSSSSKEVEEVIELLRRVAELARRGDEEEAEELAREALQLAEEANNPVLEISARFLLKIVGSSSS
B33: il10ra_site1_sap_15_mot_HHH_b2_00984_000000042_0001_1_20_H_._HHH_b1_04439_0001_0000200021_0000001_0_0001 (protein)
chain: SSSSTEELFEKVEELIKEAIELFREGNPEEAQRLLEELLEELRELGDEALLWTVEYALRRLSSSS
B34: il10ra_site1_normal_mot_HHH_b1_07835_af2_000000063_0001_1_16_H_._HHH_b2_01717_0001_0000300012_0000001_0 (protein)
chain: SSSSDEEIRERVEELLEEVEHIEDPHEAAQLLFEALRRAYELRDPELIELVLRVAAELQESSSSS
B35: il10ra_site1_sap_27_mot_HHH_b1_01513_af2_000000021_0001_1_16_H_._HHH_b1_02119_0001_0001000018_0000001_0_0001 (protein)
chain: SSSSSSEEFIELLVEAVRLAFRRSDEELLRALWRLAKEWGKEGDEKYDEELRELIEEVGSSSSSS
B36: il10ra_site1_sap_12_mot_HHH_b2_01324_000000013_0001_20_37_H_._HHH_b1_06683_0001_0000500030_0000001_1_0001 (protein)
chain: SSSSSSSKEEVEEILEEAEHIENPEEASEVLLRALEVAWRHSDKEALRLVWRVVHELGSSSSSSS
B37: il10ra_site1_normal_mot_HHH_b1_05826_af2_000000294_0001_1_18_H_._HHH_b1_06555_af2_0001_0000100002_0000001_0_af2pred_0001 (protein)
chain: SSSSHEEILRLARKAVRLFLNGNPEEAKEVAQEALRLAEELGDEELAKYLRQLLESIEINGSSSS

Target: il10ra, Q13651
Test: yeast display titration

Apparent Kd, inactive:
B1 no binding seen, B2 no binding seen, B3 no binding seen, B4 no binding seen, B5 no binding seen, B6 no binding seen, B7 no binding seen, B8 no binding seen, B9 no binding seen, B10 no binding seen, B11 no binding seen, B12 > 1.04 µM, B13 no binding seen, B14 no binding seen, B15 no binding seen, B16 no binding seen, B17 no binding seen, B18 no binding seen, B19 no binding seen, B20 no binding seen, B21 no binding seen, B22 no binding seen, B23 no binding seen, B24 no binding seen, B25 no binding seen, B26 no binding seen, B27 no binding seen, B28 no binding seen, B29 no binding seen, B30 no binding seen, B31 no binding seen, B32 > 0.512 µM, B33 no binding seen, B34 no binding seen, B35 no binding seen, B36 no binding seen, B37 no binding seen
